According to article doi:10.1101/2021.04.06.21255004:
Results are given in words; binding and its absence hold for the method and conditions named. In cells and extracts the contact can be indirect. Some binding calls cover weakened binding; strength is not graded here.

By UniProt entry, the sequences of proteins in these tests, tags left out.
UniProt P69905: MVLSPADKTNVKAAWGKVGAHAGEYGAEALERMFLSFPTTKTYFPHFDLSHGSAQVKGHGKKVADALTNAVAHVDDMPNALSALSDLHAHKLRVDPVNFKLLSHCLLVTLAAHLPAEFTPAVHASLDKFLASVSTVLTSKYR

Biological target: alpha globin (human (endogenous in omental arteries)) (UniProt P69905)
Test: co-IP

B1: cytochrome B5 reductase 3 (enzyme, UniProt P00387 1-301)
chain: MGAQLSTLGHMVLFPVWFLYSLLMKLFQRSTPAITLESPDIKYPLRLIDREIISHDTRRFRFALPSPQHILGLPVGQHIYLSARIDGNLVVRPYTPISSDDDKGFVDLVIKVYFKDTHPKFPAGGKMSQYLESMQIGDTIEFRGPSGLLVYQGKGKFAIRPDKKSNPIIRTVKSVGMIAGGTGITPMLQVIRAIMKDPDDHTVCHLLFANQTEKDILLRPELEELRNKHSARFKLWYTLDRAPEAWDYGQGFVNEEMIRDHLPPPEEEPLVLMCGPPPMIQYACLPNLDHVGHPTERCFVF
Q: For B1, which binding is on record?
A: binds
